No constants are given. Whether binding was seen depends on the method and setting. Binding seen in cells or lysates may run through a third protein. Some results given as binding are weak or reduced against the parent protein; the word gives no strength. Where a sequence is shown, tags or fusion partners need not be part of it.
Target: T1, HAM1-6xHis (A. thaliana) (UniProt Q9FLF7)
T1 sequence: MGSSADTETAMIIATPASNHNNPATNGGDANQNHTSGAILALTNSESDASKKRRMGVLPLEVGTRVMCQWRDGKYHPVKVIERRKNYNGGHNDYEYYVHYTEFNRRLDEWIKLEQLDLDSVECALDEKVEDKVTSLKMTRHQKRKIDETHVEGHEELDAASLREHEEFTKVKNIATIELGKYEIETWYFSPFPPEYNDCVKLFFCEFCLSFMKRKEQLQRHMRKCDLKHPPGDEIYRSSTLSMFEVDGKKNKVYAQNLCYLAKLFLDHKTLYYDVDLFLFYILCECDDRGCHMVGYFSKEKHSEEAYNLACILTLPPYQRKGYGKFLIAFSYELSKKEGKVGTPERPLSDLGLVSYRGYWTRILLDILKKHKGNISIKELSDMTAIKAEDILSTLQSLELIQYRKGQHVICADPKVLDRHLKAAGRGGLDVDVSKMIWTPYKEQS
Assay: pull-down

binding: binds
B1: ING2 (protein, UniProt B3H615 1-262)
chain: MAIARTGVYVDDYLEYASTFPAELQRLLNTVRELDERSQSLINQTRQQTKYCLGLASQSSKKGNGNHYNNGGLDEEETIEKMRKEIESSQENALSLCTEKVLLARQAYDLIDSHVKRLDEDLNNFAEDLKQEGKIPPDEPSVLPPLPIVPKAEKRKSFYGTPQPKKIDYRDRDWDRDRDFELMPPPGSNRKDLMPIEEQPIDPNEPTYCVCHQVSFGDMIACDNENCQGGEWFHYTCVGLTPETRFKGKWYCPTCRLLPQSH

Source: doi:10.1101/846592
